The results in this text go back to PubChem BioAssay AID212 (DTP/NCI, 2004).

SMILES strings stand for the structures. The list is a part of this screen's results and no random one: it is rich in T/C values a quarter to a half above the control, in often repeated tests (any T/C) and in doses without a T/C. Further doses and runs are listed elsewhere. T/C gives the treated animals as a percentage of the vehicle group. Schedule codes are those of the source, read here as Q, the interval in days (D) or hours (H), X, the number of doses. Some entries were tested several times; their values stand side by side, smallest first. Some T/C values are followed by the survivors on the day toxicity was checked, most often the fifth; without a count, all were alive then. Some doses have a count of surviving animals in place of a T/C: the source holds a T/C of zero for them, seemingly a mark for toxic or unscored doses. Counts of survivors are from the toxicity check (mostly the fifth day) where no day follows; animals may have died later.

The assay concerns BDF1 mice, colon carcinoma 38 sc, T/C %. Description: NCI In Vivo Anticancer Drug Screen. Data for tumor model Colon Carcinoma 38 (subcutaneous) in B6D2F1 (BDF1) mice. To be noted: T/C endpoint: median tumor weight (est.), schedule: Q07DX002 (ip), higher T/C = larger tumour; for T/C: evaluated on day 20. The gist of the method:
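Compound antitumor activity was assessed in mice carrying transplantable tumors. Survival or tumor size was recorded, and each value is the treated-group measurement divided by that of the vehicle-treated control group.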

Where [1] appears, read: dose: 12.5 mg/kg/injection, vehicle: saline with Tween-80.
Where [2] appears, read: dose: 200.0 mg/kg/injection, vehicle: saline.
[3] abbreviates: dose: 400.0 mg/kg/injection, vehicle: saline.
[4] abbreviates: dose: 800.0 mg/kg/injection, vehicle: saline.
Where [5] appears, read: dose: 100.0 mg/kg/injection, vehicle: saline with Tween-80.
The mark [6] stands for this setting: dose: 200.0 mg/kg/injection, vehicle: saline with Tween-80.
Where [7] appears, read: dose: 400.0 mg/kg/injection, vehicle: saline with Tween-80.
Where [8] appears, read: dose: 800.0 mg/kg/injection, vehicle: suspension in saline.
[9] abbreviates: dose: 50.0 mg/kg/injection, vehicle: saline with Tween-80.

Turning to `CCCCCCCCCCCCCCCCCCCCCC(=O)Nc1ccn(C2OC(CO)C(O)C2O)c(=O)n1` (stereo not given), under setting [1], the T/C is 125 % of control [9 of 10 alive on day 20]. Besides, the survivor count was 0 of 10 on day 20 under setting [2], 0 of 10 on day 20 under setting [3] and 0 of 10 on day 20 under setting [4].

As to `CCOC(=O)[C@]1(Br)CC[C@@]1(Br)C(=O)OCC`, the T/C was 140 % of control under setting [1]; 142 [9 of 10 alive on day 20] and 146 % of control under setting [5]. Further, the survivor count (dose: 1600.0 mg/kg/injection, vehicle: saline with Tween-80) is reported as 2 of 10 on day 20.

Take `C[N+](C)(C)c1ncnc2nc[nH]c12`: under setting [3], the survivor count is 4 of 10 on day 20.

For `Nc1nnc[se]1`, under setting [6], the survivor count is on record as 0 of 10 on day 20.

With `CN1CCN(c2ccc3nc(-c4ccc5nc(-c6ccc(O)cc6)[nH]c5c4)[nH]c3c2)CC1`, the survivor count is, setting by setting: under setting [3], 4 of 10 on day 20; under setting [4], 0 of 10 on day 20.

Take `Cc1ccc(-c2cc(=O)c3cccc(CC(=O)O)c3o2)cc1`: under setting [7], the survivor count is reported as 1 of 10 on day 20.

In the case of `CC[PH+](CC)CC[S-].CC[PH+](CC)CC[S-].[Au+].[Au+]`, the survivor count was 5 of 10 on day 20 (dose: 80.0 mg/kg/injection, vehicle: Klucel (hydroxypropylcellulose) (HPC)) and 0 of 10 on day 20 (dose: 160.0 mg/kg/injection, vehicle: Klucel (hydroxypropylcellulose) (HPC)).

In the case of `CCCCNc1ccc2nnc(C)n2n1`, the survivor count by setting is: (dose: 400.0 mg/kg/injection, vehicle: other) 5 of 10 on day 20 and 6 of 10 on day 20; (dose: 800.0 mg/kg/injection, vehicle: other) 0 of 10 on day 20.

In the case of `CCCCCCCCCCCCCC#CC(=O)O`, the survivor count is listed as 3 of 10 on day 20 under setting [5] and 0 of 10 on day 20 under setting [6].

Consider `Cn1cnc([N+](=O)[O-])c1Sc1ncn[nH]1`, for which, under “dose: 200.0 mg/kg/injection, vehicle: suspension in saline”, the T/C is 128 % of control [8 of 10 alive on day 20]. The survivor count under setting [8] is 1 of 10 on day 20.

Regarding `CC1=C(C)C(=O)O[C@@H]([C@](C)(O)[C@]2(O)CC[C@@]3(O)[C@@H]4C[C@H]5O[C@]56CC=CC(=O)[C@]6(C)[C@H]4CC[C@]23C)C1`, under “dose: 50.0 mg/kg/injection, vehicle: saline”, the T/C is 126 % of control. The survivor count under setting [3] is on record as 4 of 10 on day 20; the survivor count (dose: 450.0 mg/kg/injection, vehicle: saline) is reported as 1 of 10 on day 20; the survivor count (dose: 900.0 mg/kg/injection, vehicle: saline) is 0 of 10 on day 20.

In the case of `CC1CC(C)CC(C)C(O)/C(C#N)=C/C=C/CC(C2CCCC2C(=O)O)OC(=O)CC(O)C(C)C1` (stereo not given), the T/C (dose: 2.0 mg/kg/injection, vehicle: Klucel (hydroxypropylcellulose) (HPC)) is 125 % of control [9 of 10 alive on day 20].

For the compound `O=CCC(O)C(O)C(O)CO` (stereo not given), where the note is “dose: 1200.0 mg/kg/injection, vehicle: suspension in saline”, the T/C is 129 % of control.

Turning to `CN(C)[C@@H]1C(=O)C(C(N)=O)=C(O)[C@@]2(O)C(=O)C3=C(O)c4c(O)ccc(Cl)c4[C@@](C)(O)[C@H]3C[C@@H]12`, the survivor count was 2 of 10 on day 20 under setting [3], 0 of 10 on day 20 under setting [4] and 4 of 10 on day 20 under setting [8].

Take `C[C@]12CC[C@@H]3c4ccc(OC(=O)Cc5ccc(N(CCCl)CCCl)cc5)cc4CC[C@H]3[C@@H]1CC[C@@H]2OC(=O)Cc1ccc(N(CCCl)CCCl)cc1`: the T/C was 125 and 141 % of control (dose: 25.0 mg/kg/injection, vehicle: saline with Tween-80); 142 % of control under setting [9]; 140 % of control under setting [5]; 149 % of control under setting [7]; 144 % of control (dose: 800.0 mg/kg/injection, vehicle: saline with Tween-80).

With `COc1cc(O)c2c(O)c3c(c4c2c1[C@]1(C4)C(C)=CCCC1(C)C)[C@H](O)[C@@]1(O)CC(=O)C(C(N)=O)=C(O)[C@@]1(O)C3=O`, the survivor count under setting [9] was 3 of 10 on day 20 and 6 of 10 on day 20; the survivor count under setting [5] is 0 of 10 on day 20 and 3 of 10 on day 20; the survivor count under setting [6] is 0 of 10 on day 20.

As for `C=C1C(=O)OC2/C=C(\C)CC(O)/C=C(/CO)CC(OC(=O)/C(C)=C/C)C12` (stereo not given), the T/C (dose: 15.0 mg/kg/injection, vehicle: saline + alcohol) was 147 % of control.

With `O=C(O)C(O)C(O)C1[O][Sb][O]C1C(=O)O` (stereo not given), the survivor count under setting [2] is reported as 0 of 10 on day 20.

As to `OCC1(CO)COC2(CCCCC2)N1`, the T/C under setting [2] is 132 and 147 % of control.

As for `CC(=O)NC(CCc1ccc(Cl)c(Cl)c1)c1cccc(O)c(=O)c1` (stereo not given), the T/C was 132 % of control (dose: 6.25 mg/kg/injection, vehicle: Klucel (hydroxypropylcellulose) (HPC)); 140 % of control (dose: 12.5 mg/kg/injection, vehicle: Klucel (hydroxypropylcellulose) (HPC)); 132 % of control (dose: 50.0 mg/kg/injection, vehicle: Klucel (hydroxypropylcellulose) (HPC)).

`CCC(C)C(=O)O[C@H]1C(=O)O[C@@H]2C[C@H]3C(C)=CC(=O)[C@@H](O)[C@]3(C)[C@H]3[C@@H](O)[C@H](O)[C@@]4(C)OC[C@]32[C@@H]14` (stereo not given in full): the survivor count runs as follows: (dose: 10.0 mg/kg/injection, vehicle: saline + alcohol) 0 of 10 on day 20, 4 of 10 on day 20, 5 of 10 on day 20; (dose: 20.0 mg/kg/injection, vehicle: saline + alcohol) 0 of 10 on day 20 and 2 of 10 on day 20; (dose: 40.0 mg/kg/injection, vehicle: saline + alcohol) 0 of 10 on day 20; (dose: 80.0 mg/kg/injection, vehicle: saline + alcohol) 0 of 10 on day 20.

In the case of `C/C=C/c1cc2n(c1)C(=O)c1cc(OC3OC(C)C(NC)C(C)(O)C3O)c(C)c(O)c1NC2O` (stereo not given), the survivor count (dose: 32.0 micrograms/kg/injection, vehicle: saline) was 0 of 10 on day 20.

`N#CCCN(C(=S)Nc1cccc(C(F)(F)F)c1)C1CCCCC1`: the survivor count (dose: 800.0 mg/kg/injection, vehicle: Klucel (hydroxypropylcellulose) (HPC)) was 0 of 10 on day 20 and the survivor count (dose: 1600.0 mg/kg/injection, vehicle: Klucel (hydroxypropylcellulose) (HPC)) is 0 of 10 on day 20.

Turning to `COc1nc(=O)n(C2C=CC(=O)O2)cc1F` (stereo not given), the T/C is, setting by setting: (dose: 100.0 mg/kg/injection, vehicle: saline) 135 % of control [9 of 10 alive on day 20]; under setting [2], 125 % of control [9 of 10 alive on day 20].

`Cc1c2cc[n+](CCN3CCCCC3)cc2c(C)c2c1[nH]c1ccc(O)cc12`: the survivor count (dose: 100.0 mg/kg/injection, vehicle: suspension in saline) is recorded as 1 of 10 on day 20.

For the compound `c1ccc2c(c1)-c1ccccc1C1NC21` (stereo not given), the survivor count was 3 of 10 on day 20 under setting [5] and 0 of 10 on day 20 under setting [6].
